Laboratory results taken from patent publication US5196513A, “Synthetic peptides derived from the beta-subunit of human thyroid stimulating hormone” (Mayo Foundation for Medical Education and Research, priority 1991, dated 1993).
For part of these data: Not every detail of the peptide structures is certain; ends, links or a residue may be inferred. For part of these data: For at least one compound, name, drawing or mass did not settle the structure. Residues, ends and D or L forms follow the SMILES beside them.

Sequences of proteins named here, by UniProt entry; tags and fusion partners are left off. Residues count along the entry.
UniProt P21463, 22-764: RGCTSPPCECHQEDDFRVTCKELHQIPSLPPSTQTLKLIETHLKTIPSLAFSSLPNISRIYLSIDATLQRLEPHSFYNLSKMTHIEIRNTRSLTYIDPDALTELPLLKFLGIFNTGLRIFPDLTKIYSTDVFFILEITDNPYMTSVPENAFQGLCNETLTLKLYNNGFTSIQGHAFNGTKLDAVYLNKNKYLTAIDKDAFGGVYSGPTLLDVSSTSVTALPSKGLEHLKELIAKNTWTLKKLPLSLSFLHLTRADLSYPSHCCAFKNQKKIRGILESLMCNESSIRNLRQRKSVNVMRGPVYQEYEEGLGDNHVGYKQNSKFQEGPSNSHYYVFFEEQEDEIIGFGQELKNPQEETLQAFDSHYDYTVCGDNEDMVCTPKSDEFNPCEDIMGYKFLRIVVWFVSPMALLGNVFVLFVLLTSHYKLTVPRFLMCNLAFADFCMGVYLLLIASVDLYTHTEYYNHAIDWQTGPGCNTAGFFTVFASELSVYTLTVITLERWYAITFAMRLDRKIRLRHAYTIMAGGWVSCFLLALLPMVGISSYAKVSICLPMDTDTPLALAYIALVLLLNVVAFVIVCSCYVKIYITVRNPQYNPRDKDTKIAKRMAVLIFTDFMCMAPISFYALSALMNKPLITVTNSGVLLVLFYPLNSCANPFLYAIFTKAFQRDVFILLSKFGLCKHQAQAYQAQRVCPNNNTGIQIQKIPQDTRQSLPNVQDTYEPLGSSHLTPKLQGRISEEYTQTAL
UniProt Q8SPP9, 22-764: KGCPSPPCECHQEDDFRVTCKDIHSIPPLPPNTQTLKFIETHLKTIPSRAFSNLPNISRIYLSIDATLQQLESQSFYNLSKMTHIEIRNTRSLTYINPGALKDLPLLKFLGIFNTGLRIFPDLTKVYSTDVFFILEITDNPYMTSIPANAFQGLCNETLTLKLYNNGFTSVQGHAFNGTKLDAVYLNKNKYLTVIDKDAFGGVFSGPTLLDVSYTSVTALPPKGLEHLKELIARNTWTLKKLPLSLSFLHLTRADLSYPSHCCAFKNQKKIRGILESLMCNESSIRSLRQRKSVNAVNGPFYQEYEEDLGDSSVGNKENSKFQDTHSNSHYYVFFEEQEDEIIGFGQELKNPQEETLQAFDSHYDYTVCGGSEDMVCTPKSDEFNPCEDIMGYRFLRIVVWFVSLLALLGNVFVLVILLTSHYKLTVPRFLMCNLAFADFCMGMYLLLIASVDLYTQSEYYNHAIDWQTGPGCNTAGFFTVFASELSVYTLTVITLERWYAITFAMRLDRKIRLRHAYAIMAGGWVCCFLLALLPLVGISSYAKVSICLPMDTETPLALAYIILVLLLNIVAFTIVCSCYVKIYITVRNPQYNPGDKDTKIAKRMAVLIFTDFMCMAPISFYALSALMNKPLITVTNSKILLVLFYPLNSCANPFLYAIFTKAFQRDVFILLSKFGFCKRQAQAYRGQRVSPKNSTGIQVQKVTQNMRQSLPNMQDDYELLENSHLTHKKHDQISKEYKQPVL
UniProt P16473, 21-764: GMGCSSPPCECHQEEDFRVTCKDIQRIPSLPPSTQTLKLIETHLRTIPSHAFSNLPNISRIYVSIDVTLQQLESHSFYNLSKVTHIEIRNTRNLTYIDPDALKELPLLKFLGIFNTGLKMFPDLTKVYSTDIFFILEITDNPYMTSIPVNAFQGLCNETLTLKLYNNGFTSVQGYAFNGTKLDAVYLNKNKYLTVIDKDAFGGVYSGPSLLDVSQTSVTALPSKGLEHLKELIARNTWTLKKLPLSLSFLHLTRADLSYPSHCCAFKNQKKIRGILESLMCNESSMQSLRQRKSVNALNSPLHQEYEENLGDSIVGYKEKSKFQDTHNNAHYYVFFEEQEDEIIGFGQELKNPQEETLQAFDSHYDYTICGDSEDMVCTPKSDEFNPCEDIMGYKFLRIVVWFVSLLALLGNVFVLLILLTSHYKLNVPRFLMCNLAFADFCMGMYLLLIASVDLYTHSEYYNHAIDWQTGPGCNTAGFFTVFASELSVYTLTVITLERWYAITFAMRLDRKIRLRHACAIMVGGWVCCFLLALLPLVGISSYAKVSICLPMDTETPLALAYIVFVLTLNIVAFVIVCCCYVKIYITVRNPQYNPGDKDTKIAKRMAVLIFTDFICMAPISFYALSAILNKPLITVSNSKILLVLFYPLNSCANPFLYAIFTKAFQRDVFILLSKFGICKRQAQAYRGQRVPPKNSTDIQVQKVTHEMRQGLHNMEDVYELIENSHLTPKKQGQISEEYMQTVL

Assays:
FRTL5 cells = FRTL5 cells (Rattus norvegicus, UniProt P21463); assay: TSab bioassay, inhibition of TSab-stimulated cAMP generation in FRTL5 cells; type: cell-based; conditions: for Serum samples in which TSab-stimulated cAMP was significantly inhibited (p<0.05) / samples tested: peptide 150 μg/ml; for Inhibition of TSab-stimulated cAMP generation (in words): peptide 50 and 150 μg/ml
Method: FRTL5 cells were cultured in Hams F-12 medium supplemented with 5% calf serum and a preparation containing 6 hormones (6H), including 10 mU/ml bTSH (Sigma, St. Louis, Mo.), as previously described. Ambesi-Impiombato et al., Proc. Natl. Acad. Sci. U.S.A., 77:3455 (1980), the disclosure of which is incorporated by reference herein. The cells were enzymatically removed from flasks and plated in 24 well plates containing 6H at a density of 150,000 cells per well. After 4 days, the cells were washed and the media replaced with media containing insulin only (1H). All subsequent assays were performed on cells deprived of TSH for 5-7 days.
Serum samples from 15 patients with elevated TSab levels were selected from the clinical chemistry laboratory. The TSab values, expressed as an index, [formula] 63:707 (1988)]ranged from 10-20 with an average of 13.8±3.3. Normal serum has an index of less than 1.3.
The bioassay described by Kasagi et al., supra, with modifications as previously noted above, was used. The immunoglobulins were precipitated from 2 ml of TSab-containing serum with 6 ml of polyethylene glycol 6,000 (Baker; Phillipsburg, N.J.), centrifuged at 3,000×g for 20 minutes, and resuspended in 4 ml of NaCl-free HBSS with 0.5 mM IBMX and 0.5% BSA. The plated cells were washed with NaCl-free HBSS and the crude immunoglobulin extract, mixed with various concentrations of β-subunit peptides, was added in duplicate to the wells (total volume 200 μl/well). The cells were incubated for 2 hours at 37° C. and 5% CO2. The samples were then removed from the cells and a portion diluted 1:50 in NaOAc buffer, pH 6.2. A 25 μl aliquot of this was then used in a cAMP RIA as described above. The basal cAMP levels were determined for each plate of cells in the absence of immunoglobulin extract and β-peptides. A maximal cAMP level was attained by stimulating the cells with the immunoglobulin extract only. The percent increase in cAMP levels above basal was calculated as: [formula] as previously described (see Morris et al., supra). The percent inhibition of cAMP production by the β-subunit peptides was calculated as described above for TSH-stimulated cells, substituting pmol cAMP crude immunoglobulin for pmol cAMP TSH.
Inhibition of TSab activity was tested by comparing the replicates of cAMP levels generated in the presence of peptide to those generated by TSab alone using Student's T test for unpaired samples. Mean inhibition by the various doses of synthetic peptide for the patient group was tested by comparison with maximum cAMP response within each patient sample using the T test for paired samples.

[1] = target: T1, porcine TSH receptor (porcine thyroid membranes) (Sus scrofa, UniProt Q8SPP9); assay: Porcine thyroid membrane TSH radio-receptor assay (inhibition of 125I-bTSH binding); conditions: concentration inhibiting 125I-bTSH binding to porcine thyroid membrane by 50%; mean ± se of at least 3 assays
T1 construct: Frozen porcine thyroid glands were purchased; tissue Pel-Freez Biologicals; host or cells: porcine thyroid glands, crude membrane preparation
Description: Frozen porcine thyroid glands were purchased (Pel-Freez Biologicals, Rogers, Ak.) and prepared using the same procedures as for the human glands.
(§1) Highly purified bTSH (30 U/mg, supplied by Dr. J. G. Pierce, formerly of UCLA) was radio-iodinated (Na^125 I, Amersham, Chicago) by a lactoperoxidase technique to a specific activity averaging 40-50 μCi/μg as previously described, Takahashi et al., supra, then purified by Sephadex G-100 chromatography.
(§2) The TSH radio-receptor assay (RRA) utilized for the studies has been well described previously; see Takahashi et al., supra and Morris et al., Endocrinology, 123:456-462 (1988), the disclosure of which is incorporated by reference herein. Briefly, for either human or porcine thyroid RRA, the incubation mixture consisted of the following: 10 mg equivalents of wet weight (mg eq) crude thyroid membrane preparation, 0.124 ng [^125 I]iodo-bTSH (approximately 20,000 cpm), 0.2% Triton X-100, and the noted amounts of synthetic peptides or unlabeled bTSH in 0.5 ml 40 mM Tris, 0.1% BSA, pH 7.4. Bound label was separated from free after 2 hrs incubation at 25° C. by addition of a 1 ml 30% polyethylene glycol (PEG, Baker, Phillipsburg, N.J.) 6000 in 1M NaCl and centrifugation. The resulting pellet was counted in a gamma counter. Non-specific binding was determined by addition of a 100 mU/ml crude bTSH (Sigma, St. Louis).

[2] = target: T2, TSH receptor on human thyroid membranes (Homo sapiens, UniProt P16473); assay: Human thyroid membrane TSH radio-receptor assay (inhibition of 125I-bTSH binding); conditions: concentration inhibiting 125I-bTSH binding to human thyroid membrane by 50%; mean ± se of at least 3 assays
T2 construct: Crude membrane preparations were prepared from the frozen tissue; from tissue; host or cells: human thyroid tissue (Graves' disease patients), crude 2000 x g membrane fraction
Method: Thyroid tissue from patients with Graves' disease was obtained at surgery and promptly frozen and maintained at -70° C. Crude membrane preparations were prepared from the frozen tissue as previously described, Takahashi et al., J. Clin. Endocrinol. Metab., 47:870-876 (1978), the disclosure of which is incorporated by reference herein. Briefly, the tissue was homogenized with a Polytron homogenizer (Brinkmann Instruments,Westbury, N.Y.), and the 2000×g fraction was collected by centrifugation, washed, and resuspended in 40 mM Tris, 200 mM sucrose, pH 7.4. Membrane preparations were maintained at -70° C. until assay.
as §1, §2

Row | SMILES | Serum samples in which TSab-stimulated cAMP was significantly inhibited (p<0.05) / samples tested (FRTL5 cells) | Inhibition of TSab-stimulated cAMP generation (in words) (FRTL5 cells) | Inhibition of TSab-stimulated cAMP generation (in words) (FRTL5 cells; listed as 31-45) | Inhibition of TSab-stimulated cAMP generation (in words) (FRTL5 cells; listed as 61-75) | EC50 [1] | EC50 [2]
1 | CC[C@H](C)[C@H](NC(=O)[C@H](CC(=O)O)NC(=O)[C@H](CCCNC(=N)N)NC(=O)[C@@H](NC(=O)[C@H](CCSC)NC(=O)[C@@H](N)CS)[C@@H](C)O)C(=O)N[C@@H](CC(N)=O)C(=O)NCC(=O)N[C@@H](CCCCN)C(=O)N[C@@H](CC(C)C)C(=O)N[C@@H](Cc1ccccc1)C(=O)N[C@@H](CC(C)C)C(=O)N1CCC[C@H]1C(=O)N[C@@H](CCCCN)C(=O)N[C@@H](Cc1ccc(O)cc1)C(N)=O [β31-45] (H-CMTRDINGKLFLPKY-NH2) | 1/5 | did not significantly inhibit TSab activity at either concentration | did not produce a significant effect |  |  | 
2 | CC[C@H](C)[C@H](NC(=O)[C@H](CCC(=O)O)NC(=O)[C@@H](NC(=O)[C@@H](N)[C@@H](C)O)C(C)C)C(=O)N1CCC[C@H]1C(=O)NCC(=O)N[C@@H](CS)C(=O)N1CCC[C@H]1C(=O)N[C@@H](CC(C)C)C(=O)N[C@@H](Cc1c[nH]cn1)C(=O)N[C@H](C(=O)N[C@@H](C)C(=O)N1CCC[C@H]1C(=O)N[C@@H](Cc1ccc(O)cc1)C(=O)N[C@@H](Cc1ccccc1)C(N)=O)C(C)C [β61-75] (H-TVEIPGCPLHVAPYF-NH2) | 1/5 | did not inhibit TSab activity |  | did not produce a significant effect |  | 
3 | CC(C)C[C@H](NC(=O)[C@H](C)NC(=O)[C@@H](NC(=O)[C@@H]1CCCN1C(=O)[C@H](Cc1ccc(O)cc1)NC(=O)[C@H](CO)NC(=O)[C@H](Cc1ccccc1)NC(=O)[C@H](Cc1ccc(O)cc1)NC(=O)[C@@H]1CCCN1C(=O)[C@H](C)NC(=O)[C@@H](N)C(C)C)C(C)C)C(=O)N[C@@H](CO)C(=O)N[C@@H](CS)C(=O)N[C@@H](CCCCN)C(=O)N[C@@H](CS)C(N)=O [β71-85] (H-VAPYFSYPVALSCKC-NH2; N-terminus assumed) |  |  |  |  | 137 ± 14 µM | 104 ± 15 µM
4 | CC(C)C[C@H](N)C(=O)N[C@@H](CO)C(=O)N[C@@H](CS)C(=O)N[C@@H](CCCCN)C(=O)N[C@@H](CS)C(=O)NCC(=O)N[C@@H](CCCCN)C(=O)N[C@@H](CS)C(=O)N[C@@H](CC(N)=O)C(=O)N[C@H](C(=O)N[C@@H](CC(=O)O)C(=O)N[C@@H](Cc1ccc(O)cc1)C(=O)N[C@@H](CO)C(=O)N[C@@H](CC(=O)O)C(=O)N[C@@H](CS)C(N)=O)[C@@H](C)O [β81-95, Leu-Ser-Cys-Lys-Cys-Gly-Lys-Cys-Asn-Thr-Asp-Tyr-Ser-Asp-Cys] (H-LSCKCGKCNTDYSDC-NH2; N-terminus assumed) |  |  |  |  | > 1000 µM | 1200 ± 139 µM
5 | CC[C@H](C)[C@H](NC(=O)[C@H](C)NC(=O)[C@H](CCC(=O)O)NC(=O)[C@H](Cc1c[nH]cn1)NC(=O)[C@@H](NC(=O)[C@H](CS)NC(=O)[C@H](CC(=O)O)NC(=O)[C@H](CO)NC(=O)[C@H](Cc1ccc(O)cc1)NC(=O)[C@@H](N)CC(=O)O)[C@@H](C)CC)C(=O)N[C@@H](CCCCN)C(=O)N[C@H](C(=O)N[C@@H](CC(N)=O)C(=O)N[C@@H](Cc1ccc(O)cc1)C(=O)N[C@@H](CS)C(N)=O)[C@@H](C)O [β91-105] (H-DYSDCIHEAIKTNYC-NH2; N-terminus assumed) |  |  |  |  | > 1000 µM | > 1000 µM
